Reference: PubChem BioAssay AID652243 (Drosophila RNAi Screening Center, 2013)

Aim: 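Fly regulators of androgen-dependent reporter output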 (primary screen)
Cell system: Drosophila S2R+ cells
Reagents: long dsRNA against Drosophila genes
Duration: 72 h (48 h, then 24 h hormone)
Challenge: synthetic androgen R1881 at 10 nM for 24 h
Measured: 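Per-well raw luminescence of the androgen-driven firefly reporter and of the Renilla control, two replicates each, without normalisation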
Scale: firefly reporter light: higher = more light from androgen-responsive reporter; Renilla control light: higher = more constitutive control signal (cell number, transfection)
Call rule: 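Across duplicate plates, a knock-down whose log firefly/Renilla ratio shifted a set fold down or up from the GFP/LacZ control mean was a hit; the downward cut appears as both 1.5 and 3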
Calls: active = hit: reporter lowered or raised; inactive = no hit
In all, the deposit lists about 24,000 reagents; shown is an unselected part of those that have a named target and a result. In the full data, 246 (1%) are marked active. 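Plates not normalised; calls are printed but the firefly/Renilla ratio behind them is not deposited; fold cut for lowering reported inconsistently.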 The raw values are shown without normalisation. Not stated in the record: the amount of reagent.

With Cip4 [SID104188261], how do the results read?
firefly reporter light, replicate 1: 4.79e5; firefly reporter light, replicate 2: 4.42e5; Renilla control light, replicate 1: 1.23e6; Renilla control light, replicate 2: 1.01e6; activity call: inactive

With Cip4 [SID104201410], how do the results read?
firefly reporter light, replicate 1: 2.71e5; firefly reporter light, replicate 2: 2.88e5; Renilla control light, replicate 1: 1.43e6; Renilla control light, replicate 2: 1.94e6; activity call: inactive

Which result is listed for CG4042 [SID104191543]?
firefly reporter light, replicate 1: 3.00e5; firefly reporter light, replicate 2: 1.88e5; Renilla control light, replicate 1: 3.04e6; Renilla control light, replicate 2: 2.23e6; activity call: inactive

With CG4042 [SID104207658], how do the results read?
firefly reporter light, replicate 1: 2.74e5; firefly reporter light, replicate 2: 3.85e5; Renilla control light, replicate 1: 1.26e6; Renilla control light, replicate 2: 1.02e6; activity call: inactive

What is on record for ens [SID104188246]?
firefly reporter light, replicate 1: 8.14e5; firefly reporter light, replicate 2: 6.47e5; Renilla control light, replicate 1: 2.21e6; Renilla control light, replicate 2: 2.33e6; activity call: inactive

For ens [SID104204052], how do the results read?
firefly reporter light, replicate 1: 7.71e5; firefly reporter light, replicate 2: 8.81e5; Renilla control light, replicate 1: 1.26e6; Renilla control light, replicate 2: 1.28e6; activity call: inactive

With CG7888 [SID104190718], how do the results read?
firefly reporter light, replicate 1: 7.52e5; firefly reporter light, replicate 2: 9.70e5; Renilla control light, replicate 1: 1.86e6; Renilla control light, replicate 2: 2.26e6; activity call: inactive

With CG34208 [SID104216293], what does the deposit list?
firefly reporter light, replicate 1: 1.10e6; firefly reporter light, replicate 2: 1.14e6; Renilla control light, replicate 1: 1.88e6; Renilla control light, replicate 2: 2.24e6; activity call: inactive

For Bap60 [SID104199129], what does the deposit list?
firefly reporter light, replicate 1: 1.13e5; firefly reporter light, replicate 2: 1.13e5; Renilla control light, replicate 1: 4.90e5; Renilla control light, replicate 2: 4.18e5; activity call: inactive

Which result is listed for Arc2 [SID104186228]?
firefly reporter light, replicate 1: 30879; firefly reporter light, replicate 2: 32725; Renilla control light, replicate 1: 6.59e5; Renilla control light, replicate 2: 6.59e5; activity call: inactive

What did the screen give for Arc2 [SID104207251]?
firefly reporter light, replicate 1: 4.20e5; firefly reporter light, replicate 2: 4.85e5; Renilla control light, replicate 1: 1.34e6; Renilla control light, replicate 2: 1.22e6; activity call: inactive

For CG43184 [SID104214107], what was measured?
firefly reporter light, replicate 1: 9.35e5; firefly reporter light, replicate 2: 8.08e5; Renilla control light, replicate 1: 1.33e6; Renilla control light, replicate 2: 1.70e6; activity call: inactive

For CycB3 [SID104196410], what does the deposit list?
firefly reporter light, replicate 1: 1.46e5; firefly reporter light, replicate 2: 1.53e5; Renilla control light, replicate 1: 1.74e6; Renilla control light, replicate 2: 1.38e6; activity call: inactive

What is on record for spict [SID104181949]?
firefly reporter light, replicate 1: 1.39e6; firefly reporter light, replicate 2: 1.32e6; Renilla control light, replicate 1: 1.55e6; Renilla control light, replicate 2: 1.41e6; activity call: inactive

What did the screen give for spict [SID104206616]?
firefly reporter light, replicate 1: 5.17e5; firefly reporter light, replicate 2: 3.55e5; Renilla control light, replicate 1: 2.01e6; Renilla control light, replicate 2: 1.66e6; activity call: inactive

For spict [SID104216595], what does the deposit list?
firefly reporter light, replicate 1: 9.75e5; firefly reporter light, replicate 2: 1.10e6; Renilla control light, replicate 1: 1.99e6; Renilla control light, replicate 2: 2.02e6; activity call: inactive

Targets listed so far whose gene name begins with C or c (8):
Cip4 [SID104188261]: firefly reporter light, replicate 1 = 4.79e5; firefly reporter light, replicate 2 = 4.42e5; Renilla control light, replicate 1 = 1.23e6; Renilla control light, replicate 2 = 1.01e6; activity call = inactive
Cip4 [SID104201410]: firefly reporter light, replicate 1 = 2.71e5; firefly reporter light, replicate 2 = 2.88e5; Renilla control light, replicate 1 = 1.43e6; Renilla control light, replicate 2 = 1.94e6; activity call = inactive
CG4042 [SID104191543]: firefly reporter light, replicate 1 = 3.00e5; firefly reporter light, replicate 2 = 1.88e5; Renilla control light, replicate 1 = 3.04e6; Renilla control light, replicate 2 = 2.23e6; activity call = inactive
CG4042 [SID104207658]: firefly reporter light, replicate 1 = 2.74e5; firefly reporter light, replicate 2 = 3.85e5; Renilla control light, replicate 1 = 1.26e6; Renilla control light, replicate 2 = 1.02e6; activity call = inactive
CG7888 [SID104190718]: firefly reporter light, replicate 1 = 7.52e5; firefly reporter light, replicate 2 = 9.70e5; Renilla control light, replicate 1 = 1.86e6; Renilla control light, replicate 2 = 2.26e6; activity call = inactive
CG34208 [SID104216293]: firefly reporter light, replicate 1 = 1.10e6; firefly reporter light, replicate 2 = 1.14e6; Renilla control light, replicate 1 = 1.88e6; Renilla control light, replicate 2 = 2.24e6; activity call = inactive
CG43184 [SID104214107]: firefly reporter light, replicate 1 = 9.35e5; firefly reporter light, replicate 2 = 8.08e5; Renilla control light, replicate 1 = 1.33e6; Renilla control light, replicate 2 = 1.70e6; activity call = inactive
CycB3 [SID104196410]: firefly reporter light, replicate 1 = 1.46e5; firefly reporter light, replicate 2 = 1.53e5; Renilla control light, replicate 1 = 1.74e6; Renilla control light, replicate 2 = 1.38e6; activity call = inactive

The list goes on:
What is on record for eIF3f1 [SID104192120]?
firefly reporter light, replicate 1: 1.07e5; firefly reporter light, replicate 2: 88748; Renilla control light, replicate 1: 2.16e6; Renilla control light, replicate 2: 2.02e6; activity call: inactive

For eIF3f1 [SID104204699], what does the deposit list?
firefly reporter light, replicate 1: 2.51e5; firefly reporter light, replicate 2: 1.71e5; Renilla control light, replicate 1: 3.58e5; Renilla control light, replicate 2: 3.32e5; activity call: inactive

How did the screen score CG7255 [SID104190582]?
firefly reporter light, replicate 1: 6.84e5; firefly reporter light, replicate 2: 1.21e6; Renilla control light, replicate 1: 1.18e6; Renilla control light, replicate 2: 1.47e6; activity call: inactive

What did the screen give for Rcc1 [SID104189476]?
firefly reporter light, replicate 1: 9.21e5; firefly reporter light, replicate 2: 1.03e6; Renilla control light, replicate 1: 1.22e6; Renilla control light, replicate 2: 1.66e6; activity call: inactive

How did the screen score Rcc1 [SID104207525]?
firefly reporter light, replicate 1: 3.64e5; firefly reporter light, replicate 2: 3.97e5; Renilla control light, replicate 1: 9.96e5; Renilla control light, replicate 2: 9.57e5; activity call: inactive

What is on record for Top3alpha [SID104183252]?
firefly reporter light, replicate 1: 1.07e5; firefly reporter light, replicate 2: 1.44e5; Renilla control light, replicate 1: 1.43e6; Renilla control light, replicate 2: 1.52e6; activity call: inactive

What is on record for RpS28b [SID104198050]?
firefly reporter light, replicate 1: 1.08e5; firefly reporter light, replicate 2: 1.15e5; Renilla control light, replicate 1: 6.81e5; Renilla control light, replicate 2: 5.31e5; activity call: inactive

What is on record for RpS28b [SID104208453]?
firefly reporter light, replicate 1: 3.61e5; firefly reporter light, replicate 2: 2.83e5; Renilla control light, replicate 1: 9.97e5; Renilla control light, replicate 2: 1.01e6; activity call: inactive

With CG15649 [SID104184032], what does the deposit list?
firefly reporter light, replicate 1: 3.29e5; firefly reporter light, replicate 2: 3.12e5; Renilla control light, replicate 1: 2.12e6; Renilla control light, replicate 2: 2.48e6; activity call: inactive

For CG15649 [SID104208170], what was measured?
firefly reporter light, replicate 1: 5.14e5; firefly reporter light, replicate 2: 4.57e5; Renilla control light, replicate 1: 1.56e6; Renilla control light, replicate 2: 1.56e6; activity call: inactive

Which result is listed for CG11034 [SID104181913]?
firefly reporter light, replicate 1: 1.81e5; firefly reporter light, replicate 2: 1.67e5; Renilla control light, replicate 1: 1.92e6; Renilla control light, replicate 2: 1.98e6; activity call: inactive

For CG11034 [SID104181914], what does the deposit list?
firefly reporter light, replicate 1: 83463; firefly reporter light, replicate 2: 92216; Renilla control light, replicate 1: 8.41e5; Renilla control light, replicate 2: 7.12e5; activity call: inactive
